Experiment: Concentrations of brassinosteroids in Arabidopsis strains by HPLC and GC-MS
Conditions: ground part of plants at rosette formation; for concentration of brassinosteroid, rot3-1: rot3-1 (suppressed function of ROT3); for concentration of brassinosteroid, rot3-5: rot3-5 (suppressed function of ROT3); for concentration of brassinosteroid, Ws-2: wild strain Ws-2, freeze-dried
Procedure: The concentrations of brassinosteroids were determined in wild strains (Ws-2), the strain of reference example 1 (rot3-1 and rot3-5, suppressed function of ROT3) and the strain of reference example 3 (rot3/CYP90D1, suppressed function of ROT3 and CYP90D1) of Arabidoposis. The concentration was determined by harvesting the ground part of the plants at the time of rosette formation by reaping, by freezing and drying, and by detecting using HPLC and GC-MS.

SMILES | concentration of brassinosteroid, rot3-1 | concentration of brassinosteroid, rot3-5 | concentration of brassinosteroid, Ws-2
CC(C)[C@H](C)[C@@H](O)[C@H](O)[C@@H](C)[C@H]1CC[C@H]2[C@@H]3CC[C@H]4C[C@H](O)CC[C@]4(C)[C@H]3CC[C@]12C [3-Deoxotyphasterol] | 3.49 ng/g | 4.30 ng/g | 2.30 ng/g
CC(C)[C@H](C)[C@@H](O)[C@H](O)[C@@H](C)[C@H]1CC[C@H]2[C@@H]3CC[C@H]4C[C@H](O)[C@H](O)C[C@]4(C)[C@H]3CC[C@]12C [6-Deoxocastasterone] | 1.88 ng/g | 4.00 ng/g | 2.60 ng/g
CC(C)[C@H](C)[C@@H](O)[C@H](O)[C@@H](C)[C@H]1CC[C@H]2[C@@H]3CC[C@H]4C[C@@H](O)CC[C@]4(C)[C@H]3CC[C@]12C [6-Deoxoteasterone] | 0.19 ng/g | 0.11 ng/g | 0.05 ng/g
CC(C)[C@H](C)[C@@H](O)[C@H](O)[C@@H](C)C1CCC2C3OC(=O)[C@H]4C[C@H](O)[C@H](O)C[C@]4(C)C3CC[C@@]21C (stereo partly drawn) [Brassinolide] | 0.04 ng/g | 0.06 ng/g | 0.20 ng/g
CC(C)[C@H](C)[C@@H](O)[C@H](O)[C@@H](C)[C@H]1CC[C@H]2[C@@H]3CC(=O)[C@H]4C[C@H](O)[C@H](O)C[C@]4(C)[C@H]3CC[C@]12C [Castasterone] | 0.31 ng/g | 0.50 ng/g | 0.28 ng/g
CC(C)[C@H](C)[C@@H](O)[C@H](O)[C@@H](C)[C@H]1CC[C@H]2[C@@H]3CC(=O)[C@H]4C[C@@H](O)CC[C@]4(C)[C@H]3CC[C@]12C [Teasterone] | 0.004 ng/g | 0.02 ng/g | — (— in the table shows that the value is less than the limit of detection (0.001 ng/g))
CC(C)[C@H](C)[C@@H](O)[C@H](O)[C@@H](C)[C@H]1CC[C@H]2[C@@H]3CC(=O)[C@H]4C[C@H](O)CC[C@]4(C)[C@H]3CC[C@]12C [Typhasterol] | 0.38 ng/g | 0.46 ng/g | 0.27 ng/g
